Results taken from publication PMC10837360.
Results are given in words; binding and its absence hold for the method and conditions named. Binding seen in cells or lysates may run through a third protein. Here binding means that the protein was enriched with, or labelled near, the bait; the list need not be complete. Where a sequence is shown, tags or fusion partners need not be part of it.

Protein sequences, listed by entry. Tags and fused reporters are not part of them.
UniProt O00425: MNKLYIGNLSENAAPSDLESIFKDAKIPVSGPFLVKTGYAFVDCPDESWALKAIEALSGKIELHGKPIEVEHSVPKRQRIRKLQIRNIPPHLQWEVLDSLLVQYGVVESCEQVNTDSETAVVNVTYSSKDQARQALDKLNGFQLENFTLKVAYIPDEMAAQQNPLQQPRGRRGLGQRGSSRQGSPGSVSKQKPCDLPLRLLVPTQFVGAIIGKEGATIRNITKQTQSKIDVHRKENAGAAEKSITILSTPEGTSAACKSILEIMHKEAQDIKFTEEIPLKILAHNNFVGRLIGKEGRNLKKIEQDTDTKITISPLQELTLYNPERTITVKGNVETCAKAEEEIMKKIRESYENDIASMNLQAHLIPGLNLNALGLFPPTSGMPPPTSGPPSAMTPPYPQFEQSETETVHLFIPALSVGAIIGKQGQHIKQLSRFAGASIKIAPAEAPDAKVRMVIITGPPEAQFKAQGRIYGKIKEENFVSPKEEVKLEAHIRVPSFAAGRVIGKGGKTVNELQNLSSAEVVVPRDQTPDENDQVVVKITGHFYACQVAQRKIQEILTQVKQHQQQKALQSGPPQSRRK
UniProt Q9Y6M1: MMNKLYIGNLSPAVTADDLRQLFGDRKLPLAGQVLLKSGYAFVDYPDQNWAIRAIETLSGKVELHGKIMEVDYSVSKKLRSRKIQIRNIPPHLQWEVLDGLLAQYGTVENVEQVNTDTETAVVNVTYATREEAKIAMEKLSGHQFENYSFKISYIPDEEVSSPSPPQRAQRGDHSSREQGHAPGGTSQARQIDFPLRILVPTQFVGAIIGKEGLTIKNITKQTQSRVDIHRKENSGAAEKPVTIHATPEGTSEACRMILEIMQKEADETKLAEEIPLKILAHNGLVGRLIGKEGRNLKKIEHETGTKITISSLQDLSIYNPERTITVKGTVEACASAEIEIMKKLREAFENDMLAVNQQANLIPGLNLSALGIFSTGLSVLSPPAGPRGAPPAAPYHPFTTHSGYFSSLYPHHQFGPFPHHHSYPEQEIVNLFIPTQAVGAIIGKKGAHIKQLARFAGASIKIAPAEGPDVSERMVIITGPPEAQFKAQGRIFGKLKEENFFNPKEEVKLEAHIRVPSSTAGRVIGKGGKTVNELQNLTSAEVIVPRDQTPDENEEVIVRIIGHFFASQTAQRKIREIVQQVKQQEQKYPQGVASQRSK

Target: T1, Flag-SLC27A5 (solute carrier family 27 member 5, 3xFlag-tagged) (human) (UniProt Q9Y2P5)
T1 sequence: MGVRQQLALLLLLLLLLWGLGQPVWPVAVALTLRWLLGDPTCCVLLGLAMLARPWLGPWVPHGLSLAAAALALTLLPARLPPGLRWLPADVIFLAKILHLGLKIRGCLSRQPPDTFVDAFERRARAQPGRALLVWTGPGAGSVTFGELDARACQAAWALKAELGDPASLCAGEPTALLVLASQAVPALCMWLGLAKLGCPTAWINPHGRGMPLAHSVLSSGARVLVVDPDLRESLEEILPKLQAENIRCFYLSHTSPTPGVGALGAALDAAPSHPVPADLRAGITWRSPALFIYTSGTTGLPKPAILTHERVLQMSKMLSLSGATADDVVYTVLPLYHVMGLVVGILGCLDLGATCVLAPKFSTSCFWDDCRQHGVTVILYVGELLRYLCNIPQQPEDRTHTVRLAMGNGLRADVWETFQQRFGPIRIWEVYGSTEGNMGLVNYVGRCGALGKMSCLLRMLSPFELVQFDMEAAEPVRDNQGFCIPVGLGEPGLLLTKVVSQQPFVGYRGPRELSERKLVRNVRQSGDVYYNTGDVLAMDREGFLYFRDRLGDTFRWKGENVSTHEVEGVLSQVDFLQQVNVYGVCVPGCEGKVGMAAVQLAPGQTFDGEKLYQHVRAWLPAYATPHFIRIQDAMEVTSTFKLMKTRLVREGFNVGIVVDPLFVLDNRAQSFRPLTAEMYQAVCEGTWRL
Test: affinity purification with mass spectrometry; PLC/PRF/5 cells transfected with SLC27A5-TO4-3Flag or TO4-3Flag; ANTI-FLAG M2 affinity gel overnight at 4 °C; Coomassie-stained gel bands analysed by MS

Substance	binding
IGF2BP3 found by IP-MS in PLC/PRF/5 cells (from UniProt O00425 1-579)	binds
IGF2BP2 found by IP-MS in PLC/PRF/5 cells (from UniProt Q9Y6M1 1-599)	binds
